PubChem BioAssay AID504444 (National Center for Advancing Translational Sciences (NCATS), 2011)
The campaign covered roughly 360,000 compounds. About 7,500 (2.1%) were called active. Inconclusive means that the source gave no clear call. Such entries were picked first, then a sample of the others. The call rests on the fitted dose curve; in most records, active means well fitted inhibition curve with a large enough effect; inconclusive means small, poorly fitted or top-dose-only effect, or effect the other way; inactive means flat fitted curve, though single readings scatter. Where the call is inconclusive, the potency comes from a doubtful curve fit.

test: Nrf2 qHTS screen for inhibitors; details: A549 ARE-Fluc reporter, luciferase luminescence, 18-24 h; series mostly up to 46 µM; further: nearly all actives have a fitted effect of over 60% in size
Outline: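 A549 ARE_Fluc cells (5000/well, 5% FBS OPTI-MEM) pre-incubated 2 h, then treated with compounds 18-24 h at 37C/5% CO2 in concentration-response. CellTiter-Fluor viability read first; BugLite luciferase luminescence after 15 min at room temperature gives Nrf2 activity.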
Potency means the concentration at half of the fitted maximal effect.

SMILES | Potency
O=C(NCC1COc2ccccc2O1)c1ccc(NC(=O)C(c2ccccc2)c2ccccc2)cc1 (stereo not drawn) | inconclusive: 29.1 µM [falling, single point]
COc1cc(OC)cc(C(=O)NC(=S)N(Cc2ccccc2)C(C)C)c1 | inconclusive: 29.1 µM [falling, single point]
COc1cc2c(cc1OC)-c1cc(Nc3cccc(C)c3)nc(=O)n1CC2 | inconclusive: 20.6 µM [falling, partial curve]
O=C(c1cc(-c2ccccc2)nc2ccccc12)N1CCCc2ccccc21 | inconclusive: 29.1 µM [falling, single point]
O=C(NNC1=C(C(=O)C(F)(F)F)CCC1)c1ccc(Cl)cc1 | inconclusive: 29.1 µM [falling, single point]
Cc1ccc(C)c(NC(=O)CCn2cnnn2)c1 | inconclusive: 0.82 µM [activator, full curve, poor fit]
C[N+]1(CCC(=O)c2ccccc2)CCCCC1 | inactive
COc1ccc2c(c1)/C(=C/c1cc(OC)c(OC)c(OC)c1)C(=O)N2 | inconclusive: 14.6 µM [falling, partial curve, poor fit]
Cc1ccc(C(=O)Nc2ccc(Cc3ccncc3)cc2)cc1[N+](=O)[O-] | inconclusive: 23.1 µM [falling, partial curve, poor fit]
CC(C)(C)c1ccc(-c2nc(-c3ccncc3)no2)cc1 | inconclusive: 6.51 µM [activator, single point]
Cc1cc(C)c(S(=O)(=O)NCC(c2ccco2)N2CCc3ccccc3C2)c(C)c1 (stereo not drawn) | inconclusive: 29.1 µM [falling, single point]
O=C(NC1CCCCC1)c1cc(-c2ccco2)on1 | inconclusive: 4.11 µM [activator, full curve]
Cc1nnc(NC(=O)c2ccc(C)c(S(=O)(=O)N3CCCCCC3)c2)s1 | inconclusive: 18.4 µM [falling, single point]
O=C(Nc1ccccc1Br)C1CCN(S(=O)(=O)c2cccs2)CC1 | inconclusive: 18.4 µM [falling, partial curve, poor fit]
CCC(C)(C)NC(=O)c1cc(S(=O)(=O)N2CCc3ccccc32)cn1C | inconclusive: 8.2 µM [falling, partial curve]
O=C(NC(=S)/C(=C1\CCCCCN1)[N+](=O)[O-])c1ccccc1 | inconclusive: 0.517 µM [activator, full curve]
O=C1C2C3C=CC(C3)C2C(=O)N1Nc1c(Cl)cc(Cl)cc1Cl (stereo not drawn) | inconclusive: 18.4 µM [falling, partial curve, poor fit]
CCOC(=O)c1cccc(NC(=O)Cc2ccc(NC(=O)N3CCCCc4ccccc43)cc2)c1 | inconclusive: 13 µM [falling, partial curve, poor fit]
CCOc1ccc2nc(NC(=O)CSc3ccccc3)sc2c1 | inconclusive: 2.91 µM [activator, partial curve, poor fit]
COc1cccc(C2c3c(ncn(-c4cccc(Br)c4)c3=N)Oc3ccc4ccccc4c32)c1 (stereo not drawn) | inactive
CCN1CCN(/C=N/c2nc3c(s2)CCCC3)CC1 | inconclusive: 20.6 µM [falling, single point]

SMILES | Potency
Cc1ccc(NC(=O)Nc2cccs2)nc1 | inconclusive: 1.64 µM [activator, partial curve]
CCOC(=O)C1CCN(S(=O)(=O)c2c(C)[nH]c(=O)[nH]c2=O)CC1 | inconclusive: 16.4 µM [activator, partial curve, poor fit]
Cc1ccnc(N/N=C/c2ccccc2)n1 | inconclusive: 2.59 µM [activator, full curve]
COc1cc(OC)cc(-c2nnc3n2N=C(c2ccc(OC)cc2OC)CS3)c1 | inconclusive: 25.9 µM [falling, single point]
CCOC(=O)c1c(C)nc2sc3c(=O)[nH]cnc3c2c1-c1ccc(OC)cc1 | inactive
O=C(Nc1cc([N+](=O)[O-])ccc1Cl)c1ccc2c(c1)OCO2 | inconclusive: 1.64 µM [activator, full curve]
CCCC(=O)Nc1ccc2nn(-c3ccc(CC)cc3)nc2c1 | inconclusive: 2.06 µM [falling, partial curve, poor fit]
CNC(=O)c1c(Cl)cnn1-c1ccc(C)cc1 | inconclusive: 23.1 µM [activator, partial curve, poor fit]
Cc1cc([N+](=O)[O-])ccc1NC(=O)Nc1ccc(F)cc1F | inconclusive: 20.6 µM [falling, single point]
CCC(=O)N1CCN(c2ccc(NC(=O)COc3ccc(C)cc3C)cc2)CC1 | inconclusive: 29.1 µM [falling, single point]
COc1ccc(C)cc1NC(=O)C(=O)NNC(=O)c1ccco1 | inconclusive: 0.291 µM [falling, full curve, poor fit]
CNC(=S)NNC(=O)CSCc1c(Cl)cccc1Cl | inconclusive: 32.6 µM [falling, partial curve, poor fit]
Cc1nnc(SCC(=O)c2ccc([N+](=O)[O-])cc2)s1 | inconclusive: 0.082 µM [falling, partial curve, poor fit]
CC(=O)Nc1cccc(NCC(=O)Nc2cc(S(=O)(=O)N3CCCCC3)ccc2Cl)c1 | inconclusive: 29.1 µM [falling, partial curve, poor fit]
CCOc1ccccc1C(=O)Nc1cc2c(cc1N1CCCC1)n(CC)c(=O)n2CC | inactive
CCOc1cc(-c2nnc(NC(=O)c3ccco3)o2)cc(OCC)c1OCC | inconclusive: 25.9 µM [falling, partial curve, poor fit]
COc1cccc(N2CCN(C(C)C(=O)NC34CC5CC(CC(C5)C3)C4)CC2)c1 (stereo not drawn) | inconclusive: 20.6 µM [activator, single point]
O=C(Nc1ccc(F)cc1F)c1ccc(-c2ccccc2)s1 | inconclusive: 5.8 µM [activator, partial curve]
Cc1ccc(-c2nc3ccccc3[nH]2)cc1NC(=S)NC(=O)c1ccccc1Br | active: 18.4 µM
Cc1cccc(-n2c3nc(=O)[nH]c(=O)c-3cc3cc([N+](=O)[O-])ccc32)c1 | inconclusive: 14.6 µM [falling, partial curve, poor fit]
CC(C)Cn1c(N)c(C(=O)COC(=O)c2ccc(Cl)cc2)c(=O)n(C)c1=O | inconclusive: 20.6 µM [falling, single point]

SMILES | Potency
Cc1cc2c(cc1S(=O)(=O)N1CCc3ccccc31)NC(=O)CO2 | active: 23.1 µM
COc1ccc(Cc2nnc(Nc3c(C)cccc3C)o2)cc1OC | inconclusive: 11.6 µM [falling, partial curve, poor fit]
O=C(CN1CCN(c2ncc(C(F)(F)F)cc2Cl)CC1)Nc1ccc2c(c1)OCO2 | inconclusive: 23.1 µM [falling, single point]
CN1C(C(=O)Nc2ccccn2)=C(O)c2ccccc2S1(=O)=O | inactive
CCOc1ccccc1NC(=O)CSc1n[nH]c(=O)n1-c1ccccc1 | inconclusive: 14.6 µM [falling, partial curve, poor fit]
CCC(=O)Nc1nnc(SCC(=O)c2ccc3c(c2)Cc2ccccc2-3)s1 | inconclusive: 6.51 µM [activator, full curve]
Cc1cccc(N2C(=O)CSC23C(=O)N(CC(=O)NCCc2ccccc2)c2ccccc23)c1 (stereo not drawn) | inactive
COc1ccc(N2CN=C3SCC(=O)N3C2)cc1 | inconclusive: 20.6 µM [activator, partial curve]
CCN(CC)C(=O)C(=O)Nc1ccc(F)c(Cl)c1 | inconclusive: 29.1 µM [activator, single point]
CCCCn1nc(C(=O)N[C@@H](CCSC)c2nc3ccccc3[nH]2)c2ccccc2c1=O | inconclusive: 29.1 µM [falling, single point]
O=C(CNC(=O)c1ccccc1)OCC(=O)c1cccs1 | inconclusive: 25.9 µM [falling, single point]
CC1(C)CC(=O)c2cc(-c3nc(-c4ccc(Br)cc4)cs3)c(=O)n(-c3ccccc3)c2C1 | inactive
Cc1ccc(-c2c[n+](Cc3ccc(Cl)c(Cl)c3)c3n2CCC3)cc1 | inactive
O=C(Nc1nc2ccccc2[nH]1)NC1CCCCC1 | inconclusive: 2.59 µM [activator, partial curve]
COc1cc(Nc2ccc(S(=O)(=O)N3CCN(C)CC3)cc2[N+](=O)[O-])cc(OC)c1 | inconclusive: 20.6 µM [falling, partial curve, poor fit]
COc1ccc(C2C=C(c3ccc(C)cc3)Nc3ncnn32)cc1 (stereo not drawn) | inconclusive: 1.16 µM [activator, full curve, poor fit]
Cc1cccc(-c2noc(CN(C(C)C)S(=O)(=O)c3ccc(Br)cc3)n2)c1 | inconclusive: 29.1 µM [falling, single point]
COc1ccccc1N1CCN(C2CCCN(S(=O)(=O)c3cccc(Cl)c3)C2)CC1 (stereo not drawn) | inconclusive: 32.6 µM [falling, single point]
O=C(O)c1cc(Br)ccc1NN=C1CCCCC1 | inconclusive: 32.6 µM [activator, partial curve, poor fit]
C/C(=N\Nc1ccccc1)c1cccs1 | inconclusive: 2.31 µM [activator, partial curve, poor fit]
COc1ccccc1N(CC(=O)NCCSCc1cccc(C)c1)S(=O)(=O)c1ccccc1 | inconclusive: 23.1 µM [falling, single point]

4 compounds already listed, arranged by SMILES length, high to low.
SMILES | Potency
Cc1cccc(N2C(=O)CSC23C(=O)N(CC(=O)NCCc2ccccc2)c2ccccc23)c1 (stereo not drawn) | inactive
COc1ccccc1N1CCN(C2CCCN(S(=O)(=O)c3cccc(Cl)c3)C2)CC1 (stereo not drawn) | inconclusive: 32.6 µM [falling, single point]
COc1ccc(Cc2nnc(Nc3c(C)cccc3C)o2)cc1OC | inconclusive: 11.6 µM [falling, partial curve, poor fit]
CCN(CC)C(=O)C(=O)Nc1ccc(F)c(Cl)c1 | inconclusive: 29.1 µM [activator, single point]
